Data reported in PMC4226561.
Results are given in words; binding and its absence hold for the method and conditions named. Binding seen in cells or lysates may run through a third protein. Some binding calls cover weakened binding; strength is not graded here. Tags and fused reporters may be left off the sequences shown.

Legend:
Assay in all cases: split reporter; BiFC: Y/N and Y/C fragments of YFP each linked to the N-terminus of the proteins, transiently expressed in leaves of 3-week-old N. benthamiana; YFP fluorescence by confocal microscopy 3 days after infiltration
[1] = target: T1, CESA4, full length, split-YFP (BiFC) fusion (Arabidopsis thaliana) (UniProt Q84JA6)
T1 sequence: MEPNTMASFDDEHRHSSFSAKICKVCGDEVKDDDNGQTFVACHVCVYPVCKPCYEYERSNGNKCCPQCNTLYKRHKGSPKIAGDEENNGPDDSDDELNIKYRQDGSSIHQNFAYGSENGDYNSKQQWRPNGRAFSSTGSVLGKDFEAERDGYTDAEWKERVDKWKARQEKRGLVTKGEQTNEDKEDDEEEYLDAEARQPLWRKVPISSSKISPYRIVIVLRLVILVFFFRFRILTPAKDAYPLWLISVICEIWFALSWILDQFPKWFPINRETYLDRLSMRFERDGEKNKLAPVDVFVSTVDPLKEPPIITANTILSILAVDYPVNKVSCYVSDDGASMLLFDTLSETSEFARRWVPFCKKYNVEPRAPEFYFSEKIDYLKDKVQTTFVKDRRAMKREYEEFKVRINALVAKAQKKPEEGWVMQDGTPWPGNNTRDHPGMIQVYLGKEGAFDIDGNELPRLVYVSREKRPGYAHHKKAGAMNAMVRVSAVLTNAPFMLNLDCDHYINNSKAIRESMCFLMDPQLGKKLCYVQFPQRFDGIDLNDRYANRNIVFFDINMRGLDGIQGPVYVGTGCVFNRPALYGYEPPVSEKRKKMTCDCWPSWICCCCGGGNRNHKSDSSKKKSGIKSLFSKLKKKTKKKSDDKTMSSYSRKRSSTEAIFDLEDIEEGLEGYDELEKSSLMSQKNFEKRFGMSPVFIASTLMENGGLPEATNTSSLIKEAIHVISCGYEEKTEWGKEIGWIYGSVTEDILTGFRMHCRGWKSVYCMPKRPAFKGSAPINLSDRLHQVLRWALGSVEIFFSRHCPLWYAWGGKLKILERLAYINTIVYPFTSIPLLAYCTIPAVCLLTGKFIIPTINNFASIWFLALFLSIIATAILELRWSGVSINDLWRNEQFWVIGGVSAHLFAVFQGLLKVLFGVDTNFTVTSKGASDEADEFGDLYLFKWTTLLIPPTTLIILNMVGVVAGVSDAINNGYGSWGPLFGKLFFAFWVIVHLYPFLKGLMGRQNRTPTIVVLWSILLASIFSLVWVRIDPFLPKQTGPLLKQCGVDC

[2] = target: T2, KORRIGAN1 (KOR1), full length, split-YFP (BiFC) fusion (Arabidopsis thaliana) (UniProt Q38890)
T2 sequence: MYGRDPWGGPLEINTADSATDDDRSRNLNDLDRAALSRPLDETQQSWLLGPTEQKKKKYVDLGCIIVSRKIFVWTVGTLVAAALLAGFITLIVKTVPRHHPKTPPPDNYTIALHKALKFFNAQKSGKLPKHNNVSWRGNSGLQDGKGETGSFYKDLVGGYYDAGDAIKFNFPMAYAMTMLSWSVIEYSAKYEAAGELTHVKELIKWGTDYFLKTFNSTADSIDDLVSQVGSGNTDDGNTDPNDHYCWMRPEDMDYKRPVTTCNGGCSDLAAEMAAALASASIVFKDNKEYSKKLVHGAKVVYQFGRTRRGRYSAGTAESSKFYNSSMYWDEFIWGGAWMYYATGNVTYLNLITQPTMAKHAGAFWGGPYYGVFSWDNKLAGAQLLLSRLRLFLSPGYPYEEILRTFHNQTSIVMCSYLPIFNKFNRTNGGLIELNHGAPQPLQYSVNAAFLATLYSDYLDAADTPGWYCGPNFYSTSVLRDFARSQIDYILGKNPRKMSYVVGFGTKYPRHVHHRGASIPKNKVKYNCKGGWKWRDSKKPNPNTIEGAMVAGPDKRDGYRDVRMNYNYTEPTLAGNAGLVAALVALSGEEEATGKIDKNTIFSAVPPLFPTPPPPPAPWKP

[3] = target: T3, CESA6, full length, split-YFP (BiFC) fusion (Arabidopsis thaliana) (UniProt Q94JQ6)
T3 sequence: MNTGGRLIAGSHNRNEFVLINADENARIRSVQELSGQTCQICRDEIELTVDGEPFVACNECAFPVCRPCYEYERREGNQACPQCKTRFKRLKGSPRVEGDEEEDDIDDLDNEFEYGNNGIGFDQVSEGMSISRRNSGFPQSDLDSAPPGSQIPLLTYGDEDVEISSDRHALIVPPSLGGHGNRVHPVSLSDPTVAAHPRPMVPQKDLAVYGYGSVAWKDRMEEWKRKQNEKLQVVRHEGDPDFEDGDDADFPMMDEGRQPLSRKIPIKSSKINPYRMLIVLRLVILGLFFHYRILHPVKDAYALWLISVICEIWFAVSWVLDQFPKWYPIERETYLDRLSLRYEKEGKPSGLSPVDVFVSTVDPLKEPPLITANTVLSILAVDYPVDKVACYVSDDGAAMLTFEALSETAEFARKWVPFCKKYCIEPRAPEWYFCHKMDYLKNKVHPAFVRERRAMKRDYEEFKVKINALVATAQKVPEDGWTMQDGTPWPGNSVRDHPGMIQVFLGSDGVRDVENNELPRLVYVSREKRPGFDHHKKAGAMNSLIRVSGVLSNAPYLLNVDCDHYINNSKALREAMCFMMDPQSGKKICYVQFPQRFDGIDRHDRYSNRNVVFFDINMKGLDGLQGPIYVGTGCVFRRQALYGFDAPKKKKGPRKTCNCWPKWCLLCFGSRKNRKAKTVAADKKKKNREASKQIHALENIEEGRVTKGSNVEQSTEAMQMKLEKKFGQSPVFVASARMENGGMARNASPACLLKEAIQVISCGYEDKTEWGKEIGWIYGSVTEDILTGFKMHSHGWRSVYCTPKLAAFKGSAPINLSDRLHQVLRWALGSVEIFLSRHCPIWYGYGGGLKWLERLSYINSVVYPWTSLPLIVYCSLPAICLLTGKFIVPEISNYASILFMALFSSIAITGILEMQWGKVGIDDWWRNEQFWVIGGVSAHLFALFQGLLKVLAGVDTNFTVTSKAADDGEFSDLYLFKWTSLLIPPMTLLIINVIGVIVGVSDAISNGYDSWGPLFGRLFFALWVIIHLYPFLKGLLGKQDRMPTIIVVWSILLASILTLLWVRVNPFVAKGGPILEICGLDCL

Binder | binding [1] | binding [2] | binding [3]
KORRIGAN1 (KOR1), full length, split-YFP (BiFC) fusion (protein, UniProt Q38890 1-621) MYGRDPWGGPLEINTADSATDDDRSRNLNDLDRAALSRPLDETQQSWLLGPTEQKKKKYVDLGCIIVSRKIFVWTVGTLVAAALLAGFITLIVKTVPRHHPKTPPPDNYTIALHKALKFFNAQKSGKLPKHNNVSWRGNSGLQDGKGETGSFYKDLVGGYYDAGDAIKFNFPMAYAMTMLSWSVIEYSAKYEAAGELTHVKELIKWGTDYFLKTFNSTADSIDDLVSQVGSGNTDDGNTDPNDHYCWMRPEDMDYKRPVTTCNGGCSDLAAEMAAALASASIVFKDNKEYSKKLVHGAKVVYQFGRTRRGRYSAGTAESSKFYNSSMYWDEFIWGGAWMYYATGNVTYLNLITQPTMAKHAGAFWGGPYYGVFSWDNKLAGAQLLLSRLRLFLSPGYPYEEILRTFHNQTSIVMCSYLPIFNKFNRTNGGLIELNHGAPQPLQYSVNAAFLATLYSDYLDAADTPGWYCGPNFYSTSVLRDFARSQIDYILGKNPRKMSYVVGFGTKYPRHVHHRGASIPKNKVKYNCKGGWKWRDSKKPNPNTIEGAMVAGPDKRDGYRDVRMNYNYTEPTLAGNAGLVAALVALSGEEEATGKIDKNTIFSAVPPLFPTPPPPPAPWKP | binds | binds | 
KOR1N (AA 1 to 94), split-YFP (BiFC) fusion (domain or fragment, UniProt Q38890 1-94) MYGRDPWGGPLEINTADSATDDDRSRNLNDLDRAALSRPLDETQQSWLLGPTEQKKKKYVDLGCIIVSRKIFVWTVGTLVAAALLAGFITLIVK | binds | binds | binds
KOR1C (AA 70 to 621), split-YFP (BiFC) fusion (domain or fragment, UniProt Q38890 70-621) KIFVWTVGTLVAAALLAGFITLIVKTVPRHHPKTPPPDNYTIALHKALKFFNAQKSGKLPKHNNVSWRGNSGLQDGKGETGSFYKDLVGGYYDAGDAIKFNFPMAYAMTMLSWSVIEYSAKYEAAGELTHVKELIKWGTDYFLKTFNSTADSIDDLVSQVGSGNTDDGNTDPNDHYCWMRPEDMDYKRPVTTCNGGCSDLAAEMAAALASASIVFKDNKEYSKKLVHGAKVVYQFGRTRRGRYSAGTAESSKFYNSSMYWDEFIWGGAWMYYATGNVTYLNLITQPTMAKHAGAFWGGPYYGVFSWDNKLAGAQLLLSRLRLFLSPGYPYEEILRTFHNQTSIVMCSYLPIFNKFNRTNGGLIELNHGAPQPLQYSVNAAFLATLYSDYLDAADTPGWYCGPNFYSTSVLRDFARSQIDYILGKNPRKMSYVVGFGTKYPRHVHHRGASIPKNKVKYNCKGGWKWRDSKKPNPNTIEGAMVAGPDKRDGYRDVRMNYNYTEPTLAGNAGLVAALVALSGEEEATGKIDKNTIFSAVPPLFPTPPPPPAPWKP | binds | binds | binds
KIFVWTVGTLVAAALLAGFITLIVK (domain or fragment, UniProt Q38890 70-94) [KOR1TMD (AA 70 to 94), split-YFP (BiFC) fusion] | binds weakly |  | binds weakly
